Reference: paper PMC5620087
These are yes or no findings as the source states them, for the method shown. In cells and extracts the contact can be indirect. Some results given as binding are weak or reduced against the parent protein; the word gives no strength.

Protein sequences, listed by entry. Tags and fused reporters are not part of them.
UniProt Q80TZ9: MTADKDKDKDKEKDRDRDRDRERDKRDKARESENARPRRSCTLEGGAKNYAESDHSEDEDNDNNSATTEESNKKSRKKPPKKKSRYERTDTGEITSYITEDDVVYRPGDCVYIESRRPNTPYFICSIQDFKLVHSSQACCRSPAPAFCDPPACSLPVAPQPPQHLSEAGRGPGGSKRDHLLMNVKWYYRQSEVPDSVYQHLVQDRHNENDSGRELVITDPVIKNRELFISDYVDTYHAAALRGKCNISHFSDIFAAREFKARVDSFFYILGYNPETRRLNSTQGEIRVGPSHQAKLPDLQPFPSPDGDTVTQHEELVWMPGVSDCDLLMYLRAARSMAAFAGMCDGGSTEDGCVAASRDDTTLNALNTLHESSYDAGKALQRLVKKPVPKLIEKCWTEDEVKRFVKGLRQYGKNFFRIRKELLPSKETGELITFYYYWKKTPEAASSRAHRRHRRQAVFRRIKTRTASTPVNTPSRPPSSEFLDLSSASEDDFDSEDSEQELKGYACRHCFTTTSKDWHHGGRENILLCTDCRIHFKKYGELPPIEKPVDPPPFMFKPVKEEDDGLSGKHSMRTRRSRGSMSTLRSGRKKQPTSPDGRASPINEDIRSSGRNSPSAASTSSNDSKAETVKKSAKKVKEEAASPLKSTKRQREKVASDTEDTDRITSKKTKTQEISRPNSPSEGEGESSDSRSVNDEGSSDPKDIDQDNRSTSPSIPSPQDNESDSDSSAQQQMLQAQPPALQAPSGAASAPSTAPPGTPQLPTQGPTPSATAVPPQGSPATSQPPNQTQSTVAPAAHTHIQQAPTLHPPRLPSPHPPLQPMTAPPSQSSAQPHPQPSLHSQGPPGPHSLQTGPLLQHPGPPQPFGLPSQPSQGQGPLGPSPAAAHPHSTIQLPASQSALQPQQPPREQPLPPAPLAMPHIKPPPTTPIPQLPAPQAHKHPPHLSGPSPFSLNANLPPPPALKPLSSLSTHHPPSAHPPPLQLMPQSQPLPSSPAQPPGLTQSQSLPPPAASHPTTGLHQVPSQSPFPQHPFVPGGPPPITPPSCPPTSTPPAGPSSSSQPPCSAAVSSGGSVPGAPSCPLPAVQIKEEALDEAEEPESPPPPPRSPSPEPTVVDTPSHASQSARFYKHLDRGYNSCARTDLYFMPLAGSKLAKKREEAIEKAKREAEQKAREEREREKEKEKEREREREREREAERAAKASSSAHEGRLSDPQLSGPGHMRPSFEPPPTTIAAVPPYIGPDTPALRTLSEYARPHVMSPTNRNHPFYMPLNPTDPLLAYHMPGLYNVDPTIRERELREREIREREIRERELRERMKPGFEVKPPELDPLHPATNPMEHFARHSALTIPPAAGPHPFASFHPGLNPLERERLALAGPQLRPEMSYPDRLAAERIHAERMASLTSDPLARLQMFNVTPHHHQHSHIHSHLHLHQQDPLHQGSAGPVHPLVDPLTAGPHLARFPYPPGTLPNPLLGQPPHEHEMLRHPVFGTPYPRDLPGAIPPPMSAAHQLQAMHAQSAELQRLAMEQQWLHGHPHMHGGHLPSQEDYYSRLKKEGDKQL
UniProt O09106: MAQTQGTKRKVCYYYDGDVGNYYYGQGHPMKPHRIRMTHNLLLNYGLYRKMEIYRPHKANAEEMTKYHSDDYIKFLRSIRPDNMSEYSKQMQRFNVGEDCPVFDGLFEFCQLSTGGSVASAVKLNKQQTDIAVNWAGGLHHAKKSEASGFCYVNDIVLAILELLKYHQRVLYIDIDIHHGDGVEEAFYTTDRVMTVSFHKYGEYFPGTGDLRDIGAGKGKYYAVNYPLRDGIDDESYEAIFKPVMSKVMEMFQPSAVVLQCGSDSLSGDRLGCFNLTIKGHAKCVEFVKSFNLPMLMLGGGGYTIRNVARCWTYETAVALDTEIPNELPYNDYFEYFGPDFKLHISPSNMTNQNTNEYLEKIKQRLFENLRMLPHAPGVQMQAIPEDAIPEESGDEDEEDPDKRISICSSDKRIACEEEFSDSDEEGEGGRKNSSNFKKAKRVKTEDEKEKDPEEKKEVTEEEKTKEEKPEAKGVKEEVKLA
UniProt P70288: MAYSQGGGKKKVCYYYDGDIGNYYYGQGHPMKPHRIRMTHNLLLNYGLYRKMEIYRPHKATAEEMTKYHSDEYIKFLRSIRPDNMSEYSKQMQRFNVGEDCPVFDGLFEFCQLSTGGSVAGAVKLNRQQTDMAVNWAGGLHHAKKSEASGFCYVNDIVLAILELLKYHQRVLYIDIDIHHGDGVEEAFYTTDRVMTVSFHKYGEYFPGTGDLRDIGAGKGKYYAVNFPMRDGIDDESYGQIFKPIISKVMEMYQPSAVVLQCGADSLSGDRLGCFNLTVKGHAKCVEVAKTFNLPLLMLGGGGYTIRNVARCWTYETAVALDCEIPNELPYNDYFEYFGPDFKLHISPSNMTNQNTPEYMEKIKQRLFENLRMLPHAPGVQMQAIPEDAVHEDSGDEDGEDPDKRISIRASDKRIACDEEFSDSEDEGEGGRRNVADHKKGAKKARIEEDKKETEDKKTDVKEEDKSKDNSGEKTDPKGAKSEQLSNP

Tests used:
[1] = molecular target: Rere (endogenous, NIH3T3) (mouse (endogenous in NIH3T3)) (UniProt Q80TZ9); experiment: co-IP; Rere antibody on protein G sepharose, NIH3T3 whole cell extract, all proteins endogenous; wash 150 mM KCl; western blot; beads only or IgG as negative control
[2] = molecular target: Flag-Hdac1 (NIH3T3) (mouse) (UniProt O09106); experiment: co-IP; NIH3T3 transfected with Flag-Hdac1 alone or with Rere-HA; anti-Flag (or anti-HA) on Dynabeads; 150 mM NaCl; immunoblot for endogenous Rarα

binding [1]	binding [2]	Molecule
binds	–	Hdac1 (endogenous, NIH3T3) (from UniProt O09106 1-482)
binds	–	Hdac2 (endogenous, NIH3T3) (from UniProt P70288 1-488)
–	binds	retinoic acid receptor alpha (endogenous, NIH3T3) (receptor, UniProt P11416 1-462) MASNSSSCPTPGGGHLNGYPVPPYAFFFPPMLGGLSPPGALTSLQHQLPVSGYSTPSPATIETQSSSSEEIVPSPPSPPPLPRIYKPCFVCQDKSSGYHYGVSACEGCKGFFRRSIQKNMVYTCHRDKNCIINKVTRNRCQYCRLQKCFDVGMSKESVRNDRNKKKKEAPKPECSESYTLTPEVGELIEKVRKAHQETFPALCQLGKYTTNNSSEQRVSLDIDLWDKFSELSTKCIIKTVEFAKQLPGFTTLTIADQITLLKAACLDILILRICTRYTPEQDTMTFSDGLTLNRTQMHNAGFGPLTDLVFAFANQLLPLEMDDAETGLLSAICLICGDRQDLEQPDKVDMLQEPLLEALKVYVRKRRPSRPHMFPKMLMKITDLRSISAKGAERVITLKMEIPGSMPPLIQEMLENSEGLDTLSGQSGGGTRDGGGLAPPPGSCSPSLSPSSHRSSPATQSP
